According to US10406218B2 (priority 2014, dated 2019):

System: Th* (CXCR3+CCR6+CCR4-) cells
Parameters: species or system human
[1] = gene down in Th* cells (TRUE/FALSE)
[2] = gene up in Th* cells (TRUE/FALSE)

Substance	th* down [1]	th* up [2]	th* down (gene down in Th* cells vs. other Th subsets (TRUE/FALSE))	th* up (gene up in Th* cells vs. other Th subsets (TRUE/FALSE))
CCL4	FALSE	FALSE	–	–
CCL20	FALSE	TRUE	–	–
DAB1	–	–	FALSE	TRUE

Where two headings read alike, the source gives them in different places.
